In patent publication US20230399373A1 (THE TRUSTEES OF INDIANA UNIVERSITY, priority 2020, published 2023):
The same purity stands for every peptide and may come from a single statement. Non-standard residues stand in square brackets, D forms with d. *: point of attachment. Boc = CC(C)(C)OC(=O)*; Sar = CNCC(=O)O; tBu = CC(C)(C)*

Test: peptide synthesis
Conditions: whole synthesis, LC-MS (Finnigan LCQ Advantage) on TARGA C8, 5-45%B over 45 min (printed for identity)

Boc-GFFY(tBu)G-OH
final LC-MS purity: >95%

Boc-GFFY(tBu)T(tBu)-OH
final LC-MS purity: >95%

Boc-GFF[Sar]-OH
final LC-MS purity: >95%

GFFYG[APD]
final LC-MS purity: >95%

GFFYTG[APD]
final LC-MS purity: >95%

GFFYT[APD]
final LC-MS purity: >95%
